Source: PubChem BioAssay AID1259308 (NCATS, 2017)
In all, the deposit lists about 59,000 reagents; shown is a random part of them. About 1,510 of all reagents (2.6%) count as active. 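Calls use total luciferase alone and ignore viability, so some active siRNAs may act by altering cell number.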 Entries without a mark were called inactive. No sequences are given here.

Screen: 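Genes whose loss raises luciferase production in HEK293 cells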 (primary screen)
System: human HEK293 embryonic kidney cells stably expressing firefly luciferase (HEK-CMV-Luc2-Hygro)
Knock-down reagent: single siRNA against human genes, 0.8 pmol siRNA per well
Timing: 72 h
Detection: 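Reporter luminescence and viable-cell signal on separate replicate plates, given as percent of non-targeting control and median/MAD z-scores, plus per-cell luciferase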
Reading the numbers: total luciferase, z-score and total luciferase, % of control: higher = more reporter protein produced; luciferase per cell, z-score: higher = more reporter output per viable cell; viable cells, % of control: higher = more viable cells
Hit rule: 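Active when the median/MAD z-score for overall luciferase is greater than 3; a gene was taken forward for validation with new siRNAs if at least two of its three siRNAs passed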
Calls: active = raised luciferase; inactive = no rise

target	PubChem SID	total luciferase, z-score	total luciferase, % of control	luciferase per cell, z-score	viable cells, % of control
DYDC2 (GeneID 84332)	SID160752178	-0.0314	81.3	0.038	89.9
DYDC2 (GeneID 84332)	SID160752179	-0.643	69.1	-0.958	99.4
DYDC2 (GeneID 84332)	SID160752180	-0.422	73.5	-0.42	91.7
TTC32 (GeneID 130502)	SID160756962	0.959	101	0.997	86.8
TTC32 (GeneID 130502)	SID160756963	0.605	93.9	0.167	100
TTC32 (GeneID 130502)	SID160756964	1.49	111	1.13	92.5
ITPR3 (GeneID 3710)	SID160739079	-0.499	72	-1.1	107
ITPR3 (GeneID 3710)	SID160739184	0.563	93.1	0.848	83.2
ITPR3 (GeneID 3710)	SID160739290	0.472	91.3	0.166	97.6
ERI3 (GeneID 79033)	SID160748509	0.303	87.9	0.713	81.4
ERI3 (GeneID 79033)	SID160748510	0.1	83.9	-0.417	105
ERI3 (GeneID 79033)	SID160748511	2.05	123	2.51	70.7
NAALADL2 (GeneID 254827)	SID160762228	0.281	87.5	-0.0811	99.9
NAALADL2 (GeneID 254827)	SID160762229	-0.658	68.8	-0.763	94
NAALADL2 (GeneID 254827)	SID160762230	0.231	86.5	-0.0616	98.2
RASSF2 (GeneID 9770)	SID160723037	-0.276	76.4	-0.057	86.7
RASSF2 (GeneID 9770)	SID160723038	0.913	100	0.625	94.8
RASSF2 (GeneID 9770)	SID160732221	1.06	103	1.58	75.9
MIR924HG (GeneID 647946)	SID160734054	-0.515	71.6	-0.588	93.5
MIR924HG (GeneID 647946)	SID160770273	1.78	117	2.76	63.3
MIR924HG (GeneID 647946)	SID160770274	-2.34	35.4	-2.47	75.7
C9 (GeneID 735)	SID160730095	0.246	86.8	0.0469	95.8
C9 (GeneID 735)	SID160730106	-0.779	66.4	0.678	62.1
C9 (GeneID 735)	SID160730117	-0.923	63.5	-0.499	81

2 of these entries, reformatted.
{"target": "ITPR3 (GeneID 3710)", "PubChem SID": "SID160739079", "total luciferase, z-score": -0.499, "total luciferase, % of control": 72, "luciferase per cell, z-score": -1.1, "viable cells, % of control": 107}
{"target": "ITPR3 (GeneID 3710)", "PubChem SID": "SID160739184", "total luciferase, z-score": 0.563, "total luciferase, % of control": 93.1, "luciferase per cell, z-score": 0.848, "viable cells, % of control": 83.2}
